Laboratory results as given in PubChem BioAssay AID1487 (National Center for Advancing Translational Sciences (NCATS), 2009).
Several values for one entry are separate records, joined by “and”; a condition that tells them apart may be missing. Equal values may be shown once. This is one part of the list. Shown are side measurements of this screen, not its main read-out; they come without a call. Most of these compounds were active or inconclusive in the main read-out, so they are no random draw. Potencies come from curve fits of mixed quality, noted in brackets.

Assay: qHTS Assay for Modulators of Lamin A Splicing
Conditions: HeLa LMNA splicing GFP/RFP minigene ratio, 48 h
In short: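 S3 HeLa cells stably expressing lamin A-EGFP splicing minigene plus DsRed2, 600 cells/well, 48 h compound exposure at 37C. Laser-scanning cytometry; analysed as GFP (500-530 nm)/RFP (575-640 nm) total intensity ratio; 0.5% DMSO vehicle.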

[1] = measured here: RFP viability control channel
[2] = measured here: GFP splicing reporter channel

Structure (SMILES)	AC50 [1]	AC50 [2]
COc1ccccc1OCCCCOc1ccccc1C(C)=O	17.8 µM [rising, partial curve]	–
O=C(O)c1cc2cc(F)ccc2[nH]1	1.41 µM [rising, partial curve]	–
O=C(NNc1nc2c(F)cc(F)cc2s1)c1ccccc1	5.01 µM [rising, partial curve, poor fit]	–
CCCCCCCCCCCC(=O)[O][Sn]([CH2]CCC)([CH2]CCC)[O]C(=O)CCCCCCCCCCC	–	0.002 µM [falling, full curve, poor fit]
O=C(c1cccnc1)N1CCN(c2ccc(Cl)cc2)CC1	–	35.5 µM [rising, single point]
Oc1ccc(C(=S)N2CCN(c3cccc(Cl)c3)CC2)cc1	12.6 µM [rising, partial curve]	–
CN(C)c1ccc(C(=O)NC2CCCc3ccccc32)cc1 (stereo unspecified)	–	0.0355 µM [falling, full curve, poor fit]
Cn1cc(CN2CCN(c3ccccc3)CC2)c2ccccc21	10 µM [rising, partial curve, poor fit]	–
COc1ccccc1CNC(=O)c1ccc(N2CCCC2)c(NC(=O)NCc2ccc(F)cc2)c1	35.5 µM [falling, single point]	31.6 µM [falling, single point]
CCCCN(CC)Cc1ccc(CNC(=S)Nc2cccc(F)c2)o1	1.12 µM [falling, full curve, poor fit]	28.2 µM [falling, partial curve, poor fit]
CNc1nc(N)c([N+](=O)[O-])c(NCc2ccccc2)n1	35.5 µM [falling, partial curve, poor fit]	–
Cc1csc(SCC(=O)NCCc2ccc(Cl)cc2)n1	–	12.6 µM [rising, partial curve]
N#Cc1c(NCc2ccccc2)ccnc1NCc1cccnc1	6.31 µM [rising, full curve]	–
COc1ccccc1CCNCc1ccc(OC)c(OCc2ccccc2)c1	15.8 µM [rising, partial curve]	–
Cc1ccc(N2C(=O)CC2(C#N)c2ccc(OCc3ccccc3)cc2)cc1 (stereo unspecified)	12.6 µM [rising, single point]	–
COC(=O)c1ccc(C)c(NC(=O)Cc2coc3cc(OC)ccc23)c1	35.5 µM [rising, single point]	–
O=S(=O)(NCC(c1ccco1)N1CCOCC1)c1ccc(F)cc1 (stereo unspecified)	–	14.1 µM [rising, single point]
Cc1ccc(NC(=O)CSc2nc(N)c3c4c(sc3n2)CSC(C)(C)C4)cc1	35.5 µM [rising, single point]	–
O=c1c2c(-c3ccco3)csc2nc(SCc2cn3cccnc3n2)n1-c1ccccc1	14.1 µM [rising, single point]	–
CC(=O)Nc1nn(C)c2nc3cc(C)ccc3cc12	0.00447 µM [rising, full curve, poor fit]	–
O=C(Nc1cccc(S(=O)(=O)C(F)F)c1)c1ccc(S(=O)(=O)N2CCCCC2)cc1	–	22.4 µM [falling, single point]
CN1CCN(CCCNC(=O)c2ccc(/C=C3/Sc4ccccc4N(Cc4cccc(Cl)c4)C3=O)cc2)CC1	25.1 µM [falling, partial curve]	15.8 µM [falling, single point]
COc1ccc(N2CCN(C(=O)CSc3nnc(-c4ccco4)n3C)CC2)cc1	35.5 µM [falling, single point]	17.8 µM [falling, single point]
COc1cc(C(=O)Nc2ccc(Br)cc2C(=O)c2cc(OC)c(OC)c(OC)c2)cc(OC)c1OC	35.5 µM [rising, single point]	–
c1nc(NC2CCCC2)c2[nH]cnc2n1	0.00794 µM [rising, full curve, poor fit]	–
Cc1ccc(NC(=O)CSc2nc3c(cc2C#N)C(=O)CCC3)cc1S(=O)(=O)N(C)C	22.4 µM [rising, partial curve]	–
CC(C)(C)NC(=O)CCN(/N=C/c1ccc([N+](=O)[O-])o1)C1=NS(=O)(=O)c2ccccc21	17.8 µM [rising, partial curve, poor fit]	–
COC(=O)C1=C(C)N(Cc2ccco2)C(=O)N[C@@H]1c1ccccc1	0.501 µM [rising, single point]	–

17 entries from above, ordered by length of the SMILES, largest number first:
Structure (SMILES)	AC50 [1]	AC50 [2]
CC(C)(C)NC(=O)CCN(/N=C/c1ccc([N+](=O)[O-])o1)C1=NS(=O)(=O)c2ccccc21	17.8 µM [rising, partial curve, poor fit]	–
CN1CCN(CCCNC(=O)c2ccc(/C=C3/Sc4ccccc4N(Cc4cccc(Cl)c4)C3=O)cc2)CC1	25.1 µM [falling, partial curve]	15.8 µM [falling, single point]
O=C(Nc1cccc(S(=O)(=O)C(F)F)c1)c1ccc(S(=O)(=O)N2CCCCC2)cc1	–	22.4 µM [falling, single point]
Cc1ccc(NC(=O)CSc2nc3c(cc2C#N)C(=O)CCC3)cc1S(=O)(=O)N(C)C	22.4 µM [rising, partial curve]	–
COc1ccccc1CNC(=O)c1ccc(N2CCCC2)c(NC(=O)NCc2ccc(F)cc2)c1	35.5 µM [falling, single point]	31.6 µM [falling, single point]
O=c1c2c(-c3ccco3)csc2nc(SCc2cn3cccnc3n2)n1-c1ccccc1	14.1 µM [rising, single point]	–
Cc1ccc(NC(=O)CSc2nc(N)c3c4c(sc3n2)CSC(C)(C)C4)cc1	35.5 µM [rising, single point]	–
Cc1ccc(N2C(=O)CC2(C#N)c2ccc(OCc3ccccc3)cc2)cc1 (stereo unspecified)	12.6 µM [rising, single point]	–
COC(=O)c1ccc(C)c(NC(=O)Cc2coc3cc(OC)ccc23)c1	35.5 µM [rising, single point]	–
O=S(=O)(NCC(c1ccco1)N1CCOCC1)c1ccc(F)cc1 (stereo unspecified)	–	14.1 µM [rising, single point]
CNc1nc(N)c([N+](=O)[O-])c(NCc2ccccc2)n1	35.5 µM [falling, partial curve, poor fit]	–
CCCCN(CC)Cc1ccc(CNC(=S)Nc2cccc(F)c2)o1	1.12 µM [falling, full curve, poor fit]	28.2 µM [falling, partial curve, poor fit]
O=C(c1cccnc1)N1CCN(c2ccc(Cl)cc2)CC1	–	35.5 µM [rising, single point]
O=C(NNc1nc2c(F)cc(F)cc2s1)c1ccccc1	5.01 µM [rising, partial curve, poor fit]	–
N#Cc1c(NCc2ccccc2)ccnc1NCc1cccnc1	6.31 µM [rising, full curve]	–
Cc1csc(SCC(=O)NCCc2ccc(Cl)cc2)n1	–	12.6 µM [rising, partial curve]
O=C(O)c1cc2cc(F)ccc2[nH]1	1.41 µM [rising, partial curve]	–

Next results.

Structure (SMILES)	AC50 [1]	AC50 [2]
COc1ccc(CN(C(=O)Cn2nnc(-c3ccc(C)o3)n2)C(C(=O)NCC2CCCO2)c2ccco2)cc1 (stereo unspecified)	0.282 µM [falling, full curve, poor fit]	–
CCOC(=O)C1=C(C)N=C2c3ccccc3C(=O)C2C1c1ccc(Br)cc1 (stereo unspecified)	–	11.2 µM [falling, partial curve]
Cc1cc(C)n(CC(=O)Nc2cc(F)ccc2F)c(=O)c1C#N	–	25.1 µM [rising, single point]
CCOC(=O)NC(c1ccc(C(C)C)cc1)C(Cl)(Cl)Cl (stereo unspecified)	15.8 µM [rising, partial curve]	15.8 µM [rising, partial curve, poor fit]
Cc1c(-c2ccc(Cl)cc2)oc(=O)c2c(N)n(-c3ccccc3)nc12	8.91 µM [rising, partial curve]	12.6 µM [rising, partial curve]
CCOc1ccc(NC(=O)Cn2c(=O)cc(C)c3c(C)nn(C)c32)cc1	0.00282 µM [falling, full curve, poor fit]	–
CC[C@H](C)[C@H](N)C1=N[C@H](C(=O)N[C@@H](CC(C)C)C(=O)N[C@@H](CCC(=O)O)C(=O)N[C@@H](C(=O)N[C@H]2CCCCNC(=O)[C@@H](CC(N)=O)NC(=O)[C@@H](CC(=O)O)NC(=O)[C@@H](Cc3cnc[nH]3)NC(=O)[C@@H](Cc3ccccc3)NC(=O)[C@@H]([C@@H](C)CC)NC(=O)[C@@H](CCCN)NC2=O)[C@@H](C)CC)CS1	0.282 µM [falling, single point]	–
COc1ccc(NC(=O)C2OC3OC(C)(C)OC3C3OC(C)(C)OC23)cc1 (stereo unspecified)	–	0.251 µM [rising, full curve]
O=C(Nc1ccc(F)cc1)c1cn(-c2ccccc2)nc1-c1ccncc1	22.4 µM [rising, single point]	–
Cc1ccccc1-c1ccc(Nc2ccc(C(=O)N3CCOCC3)cc2)nn1	–	0.891 µM [rising, full curve, poor fit]
Cc1ccc(S(=O)(=O)c2c(Nc3ccc(C)c(C)c3)sc(C(=O)c3ccc4c(c3)OCO4)c2N)cc1	0.447 µM [rising, full curve]	5.01 µM [rising, partial curve, poor fit]
CCOc1ccc(/C=C/C(O)=C2/C(=O)N(C)C3(C)CC2c2ccccc2O3)cc1OC (stereo unspecified)	7.08 µM [falling, partial curve, poor fit]	11.2 µM [falling, single point]
COc1cc(C(=O)NCc2ccc(C)cc2)ccc1OC(F)F	–	28.2 µM [rising, single point]
Cc1sc2nc3n(c(=O)c2c1C)Cc1ccccc1-3	0.0251 µM [rising, full curve, poor fit]	0.0316 µM [rising, full curve, poor fit]
S=C1NC2(CCCCC2)Cc2ccccc21	20 µM [rising, single point]	–
COCCn1c(=NC(=O)/C=C/c2cccs2)sc2cc(NC(C)=O)ccc21	17.8 µM [rising, partial curve, poor fit]	–
CCOC(=O)C1=C(C)N[C@@]2(O)c3ccccc3C(=O)[C@@]12O	0.02 µM [falling, full curve, poor fit]	0.02 µM [falling, full curve]
CC(=O)NC(NC(=S)Nc1ccc(N=Nc2ccccc2)cc1)C(Cl)(Cl)Cl (stereo unspecified)	35.5 µM [falling, single point]	35.5 µM [falling, single point]
Cc1cccc(N2C(=O)CN(Cc3sccc3C)C2=S)c1	12.6 µM [rising, single point]	–
C/C(=N\Nc1ccc(C(F)(F)F)cn1)c1ccncc1	1.12 µM [rising, full curve]	–
Cc1c(Cc2ccccc2)sc(/N=C/c2c(O)ccc3ccccc23)c1C(N)=O	12.6 µM [rising, partial curve]	20 µM [rising, single point]
COc1ccccc1N(CC(O)COc1c(C)cc(C)cc1C)S(=O)(=O)c1ccccc1 (stereo unspecified)	22.4 µM [rising, single point]	12.6 µM [rising, single point]
CC12CC3CC(C)(C1)CC(N)(C3)C2	14.1 µM [rising, single point] and 2.24 nM [falling, full curve, poor fit]	0.00224 µM [falling, full curve, poor fit]
COc1ccc(S(=O)(=O)Nc2ccc(F)c(Cl)c2)cc1OC	15.8 µM [rising, single point]	12.6 µM [rising, single point]
Cc1nc(SCC(=O)Nc2ccc(OCc3ccccc3)cc2)n[nH]1	35.5 µM [falling, single point]	35.5 µM [falling, partial curve, poor fit]
Cc1cc(C)n2nc(-c3ccsc3-n3c(C)ccc3C)cc2n1	–	17.8 µM [rising, single point]
CC(=O)Nc1ccc(Nc2c3ccccc3nc3ccccc23)cc1	–	0.891 µM [falling, partial curve]
